Results are given in words; binding and its absence hold for the method and conditions named. A result given as binding can be weak or reduced; the word gives no strength.
Biological target: baboon L-selectin (on baboon leukocytes) (baboon)
Assay: binding to leukocytes (e.g. FACS analysis)

binding: binds
B1: HuDreg 55 humanized anti-L-selectin antibody (antibody, human IgG4, kappa, V domains shown)
VH: EVQLVESGGGLVQPGGSLRLSCAASGFTFSTYAMSWVRQAPGKGLEWVASISTGGSTYYPDSVKGRFTISRDNAKNTLYLQMNSLRAEDTAVYYCARDYDGYFDYWGQGTLVTVSS
VL: DIQMTQSPSSLSASVGDRVTITCKASQSVDYDGDSYMNWYQQKPGKAPKLLIYAASNLESGIPSRFSGSGSGTDFTLTISSLQPEDFATYYCQQSNEDPWTFGQGTKVEIKR

From US20020098183A1 (published 2002)
